Among all 9,300 compounds or so, about 150 (1.6%) were called active. Roughly 24% stayed inconclusive and do not appear here. Calls follow the shape of the dose curve; as a rule, active = well fitted inhibition curve with a large enough effect in the signal ratio in the repeat runs (not every such curve was filed as active); inconclusive = weak or mixed curves, or effect the other way; inactive = no such curve, though single readings can be large or run the other way; the % refers to the signal ratio. Some of the results follow.
molecular target: Peroxisome proliferator-activated receptor delta, Homo sapiens (UniProt Q03181); experiment: qHTS assay to identify small molecule antagonists of the peroxisome proliferator-activated receptor delta (PPARd) signaling pathway (AID 743215)

Sequences of proteins named here, by UniProt entry; tags and fusion partners are left off.
UniProt Q03181, whole entry L134P: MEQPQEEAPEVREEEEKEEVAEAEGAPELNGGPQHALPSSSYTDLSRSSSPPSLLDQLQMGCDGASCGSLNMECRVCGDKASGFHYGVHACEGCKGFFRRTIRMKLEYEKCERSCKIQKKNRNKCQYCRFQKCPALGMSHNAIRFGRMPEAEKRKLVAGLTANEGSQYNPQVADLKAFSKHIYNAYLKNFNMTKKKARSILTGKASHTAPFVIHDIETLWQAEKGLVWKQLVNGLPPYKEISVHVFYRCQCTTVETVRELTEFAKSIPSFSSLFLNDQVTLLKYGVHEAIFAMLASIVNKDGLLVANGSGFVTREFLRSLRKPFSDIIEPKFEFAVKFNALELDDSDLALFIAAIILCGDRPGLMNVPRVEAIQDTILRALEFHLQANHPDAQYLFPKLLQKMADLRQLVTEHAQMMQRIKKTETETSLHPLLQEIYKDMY

| SMILES | outcome |
| --- | --- |
| [I-].[Na+] | inactive |

From the GenesisPotency data set
